Results are given in words; binding and its absence hold for the method and conditions named. Some results given as binding are weak or reduced against the parent protein; the word gives no strength.

The target of assay [1] is T1, recombinant human BOLA3, fluorescently labelled (human) (UniProt Q53S33).
T1 sequence (chain, NT-647 dye (Monolith NT Protein Labeling Kit RED)): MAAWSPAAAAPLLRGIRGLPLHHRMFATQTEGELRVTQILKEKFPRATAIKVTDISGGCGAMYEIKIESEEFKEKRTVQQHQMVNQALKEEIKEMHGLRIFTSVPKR
Put plainly: MST; 200 nM NT-647 labelled protein titrated with unlabelled protein from 200 µM to 6.1 nM; 50 mM KPi pH 7.4, 150 mM NaCl, 5% glycerol, 0.05 mg/mL BSA, 0.05% Tween20; 21°C; anaerobic; both purified.

For assay [2], the target named is T2, recombinant human BOLA1, fluorescently labelled (human) (UniProt Q9Y3E2).
T2 sequence (chain, NT-647 dye (Monolith NT Protein Labeling Kit RED)): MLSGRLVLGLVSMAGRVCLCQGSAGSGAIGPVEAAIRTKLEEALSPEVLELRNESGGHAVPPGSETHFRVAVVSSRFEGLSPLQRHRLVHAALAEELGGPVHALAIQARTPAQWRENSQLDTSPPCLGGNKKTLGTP
The description is as above.

Assay [3] has as its target Bol3-Strep (S. cerevisiae) (UniProt P39724). Nature of the assay: SEC; mitochondrial lysates (sonication, 50 mM NaPO4, 150 mM NaCl, pH 7.0) of Nfu1-Strep or Bol3-Strep cells chromatographed separately on HiLoad Superdex 75 PG 16/600; fractions immunoblotted; DTT left the Nfu1 elution unaffected, dithionite attenuated the apparent dimer. A general note: Size exclusion chromatography separates by hydrodynamic size, large species first.

B1: human holo-GLRX5 dimer containing the bridging [2Fe-2S] cluster (protein, UniProt Q86SX6 32-157)
chain: AGSGAGGGGSAEQLDALVKKDKVVVFLKGTPEQPQCGFSNAVVQILRLHGVRDYAAYNVLDDPELRQGIKDYSNWPTIPQVYLNGEFVGGCDILLQMHQNGDLVEELKKLGIHSALLDEKKDQDSK
modifications: bridging [2Fe-2S] cluster between two GLRX5 monomers
Turning to B1, in assay [1], the binding result is on record as “binds”.

B2: human apo-GLRX5 (protein, UniProt Q86SX6 32-157)
chain: B1 chain
Take B2: the binding entry in assay [2] and in assay [1] was “binds” each time.

B3: Bol3-Strep (protein, UniProt P39724 1-118)
chain: MKLPQTMLRSISVKHVRWPRILTGSKLWYSTQMAMTPEEKMITDKLQQELEPEVCKVQDVSGGCGSMFAINITSKKFNGLSLIKQHQLVNRILRDDISRWHGLQLTTKKSTGKGPASS
Turning to B3, the binding result in assay [3] was “no binding”.
